Experimental data reported in patent US20240301052A1 (LANOVA MEDICINES DEVELOPMENT, published 2024).
Where a chain is given by its changes, count along the chain named. No constants are given. Whether binding was seen depends on the method and setting. Some binding calls cover weakened binding; strength is not graded here.

B1: xi90G10H7 hIgG1 (antibody, V domains shown)
VH: QVQLQQPGAVLVKPGASVKMSCKASGYTFTSYIIHWVKQTPGQGLEWVGAIYPGNGDASSIQKFKGKATLTVDKSSSTAYMQLSSLTSADSAVYYCARGHYYGSAAWFAYWGQGTLVTVSA
VL: DILLTQSPAILSVSPGERVSFSCRASQNIGTGIHWYQQRTNGSLRLLIKYASESISGIPSRFSGSGSGTDFTLSINSVESEDIADYYCQQSNSWPLTFGAGTKLELK
notes: chimeric, hIgG1
B2: xi95H11A1D8VH-1 hIgG1 (antibody, V domains shown)
VH: QVQLQQPGAELVKPGASVKMSCKTSGYTFTTNNMHWVKQTPGQGLEWIGAIYPGNGATAYNQKFKGKATLTADKSSSTAYMQLSSLTSEASAVYYCARGMYGHGAMDYWGQGTSVIVSS
VL: DIVLTQSPATLSVTPGDSVSLSCRARQNIGNNLYWYQQKSNESPRLLIKYASQSISGIPSRFSGSGSGTDFTLTINSVETEDFGVYFCQQSFSWPLTFGAGTKLELK
notes: chimeric, hIgG1; the suffix VH-1 is not explained
B3: 63A11D5B4 VH_P1/VL hIgG1 (antibody, V domains shown)
VH: QVQLQQPGAELVKPGASVKMSCRTSGYTFITYNMHWVKQTPGQGREWIGAIYPGSGDTSYNQKFKGKATLTADKSSSTAYMQLNSLTSEDSAVYYCSISTIITTGAVDYWGQGTSVTVAS
VL: DIVMTQSHKFMSTSVGDRVSITCKASQDVGTAVAWYQQKAGQSPKLLIYWTSTRHTGVPDRFTGSGSGTDFTLIIRSLQSEDLADYFCQQYSRIPLTFGSGTKLEIK
notes: PTM-derisked chimeric, hIgG1; that P1 is the SG version follows from the humanized .p1 chains; also called 63A11D5B4.p1 hIgG1
B4: 30H9B8F9 VH_P1/VL hIgG1 (antibody, V domains shown)
VH: B2 VH with N55S
VL: DIVMTQSHKFMSRSVGDRVRITCKASQDVGTAVAWYQQKPGQSPKLLIYWATTRHSGVPDRFTGSGSGTDFIFTISNVQSEDLADYFCQQYSSNPLTFGAGTKLELK
notes: PTM-derisked chimeric, hIgG1; that P1 is the N=>S version follows from the humanized .p1 chains; also called 30H9B8F9.p1 hIgG1
B5: 62G10E4G8 VH_P3/VL hIgG1 (antibody, V domains shown)
VH: QVQLQQSGAEVVKPGASVKMSCKASGYTFPSYITHWVKQTPGQGLEWIGAIYPGNADTSYIQKFKGKATLTADKSSSTAYMQLSSLTSEDSAVYYCARGTYGTSAWFTYWGQGTLVTVSA
VL: B2 VL with N41H
notes: PTM-derisked chimeric, hIgG1; that P3 is the NA version follows from the humanized .p3 chains; also called 62G10E4G8.p3 hIgG1
B6: 91C9F1.p1 hIgG1 (antibody, V domains shown)
VH: EVQLQQSGPELVKPGTSVKISCKTSGFFFTEYIIHWVKQSHGRSLEWIGGIIPNNDVTNYKQNFRGKAALTADKSSNTAYMELRSLTSEDSAVYYCARWRNAYYSAMDSWGQGTSVTVSS
VL: DIVVTQSHKFMSTSLGDRVSITCTASQDVGTAVAWYQQKPGHSPKLLIYWASTRHTGVPERFTGSGSGTDFTLTITNVQSEDLADYFCQQYRTSPLTFGVGTKLELK
notes: PTM-derisked chimeric, hIgG1; also called 91C9F1.pl hIgG1

Biological target: T1, human SLC34A2 (human, UniProt O95436 1-690)
T1 sequence (looked up): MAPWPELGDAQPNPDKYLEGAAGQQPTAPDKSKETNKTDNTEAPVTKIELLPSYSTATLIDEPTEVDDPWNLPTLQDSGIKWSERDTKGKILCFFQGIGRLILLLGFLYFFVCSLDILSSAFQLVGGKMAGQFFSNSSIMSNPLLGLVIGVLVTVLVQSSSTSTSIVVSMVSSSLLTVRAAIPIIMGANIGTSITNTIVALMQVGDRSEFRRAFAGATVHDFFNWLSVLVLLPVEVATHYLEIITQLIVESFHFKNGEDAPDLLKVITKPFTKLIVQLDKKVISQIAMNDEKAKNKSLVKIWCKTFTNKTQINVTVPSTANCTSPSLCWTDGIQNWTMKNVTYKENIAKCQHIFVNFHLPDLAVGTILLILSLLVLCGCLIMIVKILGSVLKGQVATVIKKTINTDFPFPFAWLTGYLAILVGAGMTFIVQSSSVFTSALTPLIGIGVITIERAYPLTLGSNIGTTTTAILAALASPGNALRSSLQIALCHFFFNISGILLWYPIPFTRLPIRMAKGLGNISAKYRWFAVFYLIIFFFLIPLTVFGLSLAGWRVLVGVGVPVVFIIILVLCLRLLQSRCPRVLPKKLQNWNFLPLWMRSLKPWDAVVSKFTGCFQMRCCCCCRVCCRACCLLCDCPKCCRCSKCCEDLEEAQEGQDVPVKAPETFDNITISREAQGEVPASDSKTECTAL
Assay: FACS, OVCAR3 and HEK293/human SLC34A2 cells

binding, binds:
B1
B2

Biological target: T2, Rhesus SLC34A2 (Rhesus, UniProt F7HDA3 1-690)
T2 construct: whole, on cells
T2 sequence: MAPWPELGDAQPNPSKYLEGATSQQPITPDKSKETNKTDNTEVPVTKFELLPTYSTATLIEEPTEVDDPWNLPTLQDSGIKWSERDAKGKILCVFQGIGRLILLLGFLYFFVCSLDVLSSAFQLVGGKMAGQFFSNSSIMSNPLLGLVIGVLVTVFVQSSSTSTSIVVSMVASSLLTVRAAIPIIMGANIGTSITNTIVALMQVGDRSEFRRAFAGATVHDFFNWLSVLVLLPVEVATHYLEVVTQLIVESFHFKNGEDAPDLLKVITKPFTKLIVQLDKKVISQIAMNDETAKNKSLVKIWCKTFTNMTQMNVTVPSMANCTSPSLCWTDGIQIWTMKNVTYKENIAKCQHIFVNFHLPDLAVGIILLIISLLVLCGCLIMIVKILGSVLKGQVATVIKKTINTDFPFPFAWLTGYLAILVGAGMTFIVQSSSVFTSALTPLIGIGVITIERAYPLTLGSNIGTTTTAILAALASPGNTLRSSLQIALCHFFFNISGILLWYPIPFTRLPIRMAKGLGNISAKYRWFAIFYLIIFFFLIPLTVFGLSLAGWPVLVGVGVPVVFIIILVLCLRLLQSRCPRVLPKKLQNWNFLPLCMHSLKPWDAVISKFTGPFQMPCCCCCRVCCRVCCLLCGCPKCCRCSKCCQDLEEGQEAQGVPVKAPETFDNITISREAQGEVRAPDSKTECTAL
Assay: FACS, HEK293/Rhesus SLC34A2 cells

binding, binds:
B3
B4
B5
B6

Biological target: T1, human SLC34A2
Assay: FACS, RMG-1 cells

binding, binds:
B1

Biological target: T1, human SLC34A2
Assay: FACS, HEK293/human SLC34A2 cells

binding, binds:
B3
B4
B5
B6

Biological target: T1, human SLC34A2
Assay: FACS, OVCAR3 cells

binding, binds:
B3
B4
B5
B6
